Counter-ions that a name gives are not always drawn. The list shows a part of the results. Single values are uncertain here, since repeats match poorly.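 In a drug-repurposing library screen, luminescence reads luciferase driven by eight TEAD-binding elements, stably integrated into human kidney-derived cells. Compounds scoring over five robust Z scores above the plate mean are called hits.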
Tested on: HEK293A TEAD-LUC reporter
Assay: TEAD-luciferase reporter activity (YAP activation), robust Z score vs plate; higher = stronger YAP/TEAD activation
Conditions: 24 h

Row | Structure (SMILES) | TEAD-luciferase reporter activity (compound concentration: 200 nM) | TEAD-luciferase reporter activity (compound concentration: 2 uM) | TEAD-luciferase reporter activity (compound concentration: 10 uM)
1 | Cc1c(CN(C)C(=O)/C=C/C2=CNC3=NC(=O)CCC3=C2)oc2ccccc12 | inactive: -0.706 | inactive: -2.04 | inactive: -1.41
2 | CCC(CC)n1c(C)cc2c3c(N)nc(N)nc3ccc21 | inactive: -1.57 | inactive: -1.81 | inactive: 2.68
3 | S=[Se]=S | inactive: -0.171 | – | inactive: -1.58
4 | CC(C)[C@@]1(C)SC(NC2C[C@H]3CC[C@@H]2C3)=NC1=O (stereo not given in full) | inactive: -0.965 | inactive: 0.29 | inactive: -0.601
5 | CO/N=C(\C(=O)NC1C(=O)N2C(C(=O)O)=CCSC12)c1csc(N)n1 (stereo not given) [ceftizoxime] | inactive: 0.821 | inactive: -0.28 | inactive: 0.148
6 | CO/N=C(\C(=O)NC1C(=O)N2C(C(=O)O)=CCSC12)c1csc(N)n1 (stereo not given) [Ceftizoxime sodium] | – | inactive: -1.41 | –
7 | CCCNC(Cc1ccc(OCCc2nc(-c3ccccc3)oc2C)cc1)C(=O)O (stereo not given) | inactive: -1.3 | inactive: -0.0731 | inactive: -0.281
8 | Cc1cc(SC2=C(O)CC(CCc3ccc(O)cc3)(C(C)C)OC2=O)c(C(C)(C)C)cc1N (stereo not given) | inactive: 2.06 | inactive: -0.265 | inactive: 0.91
9 | CC(O)c1ccc(CCOc2ccc(CC3SC(=O)NC3=O)cc2)nc1 (stereo not given) [Hydroxypioglitazone] | inactive: -1.11 | inactive: -0.898 | inactive: -0.115
10 | CC(C)c1ccc(NC(=O)Cn2cnc3c2c(=O)n(C)c(=O)n3C)cc1 | inactive: 2.36 | inactive: -1.48 | inactive: -0.427
11 | CC(C)=CCOc1cc(NC(=S)c2cccnc2)ccc1Cl | inactive: 0.77 | inactive: -1.34 | inactive: -1.34
12 | C=C(c1ccccc1Cl)C(O)(Cn1cncn1)c1ccc(Cl)cc1 (stereo not given) | inactive: 0.391 | inactive: 0.294 | inactive: -0.582
13 | CNC(=O)Nc1c(OCCN2CCCC2)c(OC)c2occc2c1OC [Carocainide] | inactive: -0.344 | – | inactive: 0.972
14 | CC[N+](C)(C)NCCC(=O)O [metabolite of EDIHYP] | inactive: -0.502 | inactive: -0.955 | inactive: -1.65
15 | O=C(O)c1cccnc1N1CCN(CCCC(c2ccc(F)cc2)c2ccc(F)cc2)CC1 | inactive: 0.509 | inactive: -0.679 | inactive: -0.577
16 | COc1ccccc1N1CCN(CC(C)N(C(=O)C2CCCCC2)c2ccccn2)CC1 (stereo not given) | inactive: -0.755 | inactive: -0.857 | inactive: -1.46
17 | CC1(C)O[C@@H]2C[C@H]3[C@@H]4CCC5=CC(=O)C=C[C@]5(C)[C@@]4(F)[C@@H](O)C[C@]3(C)[C@]2(C(=O)CO)O1 [Triamcinolone acetonide] | inactive: -0.613 | – | inactive: 0.298
18 | CC1(C)O[C@@H]2C[C@H]3[C@@H]4CCC5=CC(=O)C=C[C@]5(C)[C@@]4(F)[C@@H](O)C[C@]3(C)[C@]2(C(=O)CO)O1 [triamcinolone acetonide] | – | inactive: 0.854 | –

A second format for some results above.

| Row | Structure (SMILES) | TEAD-luciferase reporter activity (compound concentration: 200 nM) | TEAD-luciferase reporter activity (compound concentration: 2 uM) | TEAD-luciferase reporter activity (compound concentration: 10 uM) |
| --- | --- | --- | --- | --- |
| 3 | S=[Se]=S | inactive: -0.171 | – | inactive: -1.58 |
| 4 | CC(C)[C@@]1(C)SC(NC2C[C@H]3CC[C@@H]2C3)=NC1=O (stereo not given in full) | inactive: -0.965 | inactive: 0.29 | inactive: -0.601 |
| 5 | CO/N=C(\C(=O)NC1C(=O)N2C(C(=O)O)=CCSC12)c1csc(N)n1 (stereo not given) [ceftizoxime] | inactive: 0.821 | inactive: -0.28 | inactive: 0.148 |
| 6 | CO/N=C(\C(=O)NC1C(=O)N2C(C(=O)O)=CCSC12)c1csc(N)n1 (stereo not given) [Ceftizoxime sodium] | – | inactive: -1.41 | – |
| 7 | CCCNC(Cc1ccc(OCCc2nc(-c3ccccc3)oc2C)cc1)C(=O)O (stereo not given) | inactive: -1.3 | inactive: -0.0731 | inactive: -0.281 |
| 8 | Cc1cc(SC2=C(O)CC(CCc3ccc(O)cc3)(C(C)C)OC2=O)c(C(C)(C)C)cc1N (stereo not given) | inactive: 2.06 | inactive: -0.265 | inactive: 0.91 |
| 9 | CC(O)c1ccc(CCOc2ccc(CC3SC(=O)NC3=O)cc2)nc1 (stereo not given) [Hydroxypioglitazone] | inactive: -1.11 | inactive: -0.898 | inactive: -0.115 |
| 10 | CC(C)c1ccc(NC(=O)Cn2cnc3c2c(=O)n(C)c(=O)n3C)cc1 | inactive: 2.36 | inactive: -1.48 | inactive: -0.427 |

(listing goes on)

Row | Structure (SMILES) | TEAD-luciferase reporter activity (compound concentration: 200 nM) | TEAD-luciferase reporter activity (compound concentration: 2 uM) | TEAD-luciferase reporter activity (compound concentration: 10 uM)
19 | CC(=O)NCC(=O)N1[C@@H]2CC[C@H]1c1ccc(Nc3ncc(C(F)(F)F)c(NC4CCC4)n3)cc12 | inactive: 1.39 | inactive: -2.36 | inactive: -0.684
20 | C[C@@H]1CC[C@@]2(NC1)O[C@H]1C[C@H]3[C@@H]4CC=C5C[C@@H](O[C@@H]6O[C@H](CO)[C@H](O)[C@H](O[C@@H]7O[C@H](CO)[C@@H](O)[C@H](O)[C@H]7O)[C@H]6O[C@@H]6O[C@@H](C)[C@H](O)[C@@H](O)[C@H]6O)CC[C@]5(C)[C@H]4CC[C@]3(C)[C@H]1[C@@H]2C [Solasonine] | inactive: -0.526 | inactive: -0.108 | inactive: 1.01
21 | O=C(Nc1cc(C(F)(F)F)ccc1Oc1ccc(Cl)c2ccccc12)c1cc(Cl)ccc1O | inactive: -0.828 | inactive: -0.601 | inactive: -1.06
22 | CC(=O)Nc1ccc(CC(=O)Nc2ncc(C)s2)cc1 | inactive: -1.02 | inactive: -0.223 | inactive: -2.19
23 | NNC(=O)CCCCCC(=O)NN | inactive: -1.57 | inactive: -1.31 | inactive: 1.06
24 | CCOC(=O)N1CSCC1C(=O)O (stereo not given) [telmesteine] | inactive: 0.527 | inactive: -0.238 | inactive: -0.994
25 | [F][Ga]([F])[F] [Gallium Fluoride] | inactive: 0.644 | inactive: 1 | inactive: 2.79
26 | CN(C)CCOc1ccc(/C(=C(/CCCl)c2ccccc2)c2ccccc2)cc1 [toremifene citrate] | – | inactive: 0.274 | –
27 | CN(C)CCOc1ccc(/C(=C(/CCCl)c2ccccc2)c2ccccc2)cc1 | inactive: 0.116 | – | inactive: 0.351
28 | N=C(N)NCCNS(=O)(=O)c1cccc2cnccc12 | inactive: 4.59 | inactive: -0.645 | inactive: 2.65
29 | CC(C)NCCCn1c(Sc2cc3c(cc2I)OCO3)nc2c(N)ncnc21 | inactive: -1.42 | inactive: -2.04 | inactive: -3.07
30 | COc1ccc([C@]2(C#N)CC[C@@H](C(=O)O)CC2)c2c1OCCO2 | inactive: 1.65 | inactive: -1.03 | inactive: -0.123
31 | CS(=O)(=O)Nc1cc([C@@H](O)CN[C@H](Cc2ccccc2)c2ccc(OC(F)F)cc2)ccc1O | inactive: -1.25 | inactive: -0.397 | inactive: -1.38
32 | O=C(Nc1ccc(Cl)c(COc2cccnc2)c1)c1cc(F)cc(N2CCOCC2)c1 | inactive: -1.18 | inactive: 0.0523 | inactive: -0.534
33 | CC(C)(C)c1nc(N2CCN(CCCSc3nccc(O)n3)CC2)cc(C(F)(F)F)n1 | inactive: -0.0112 | inactive: 0.286 | inactive: -0.317
34 | c1ccc(-c2ncc(CN3CCN(c4ncccn4)CC3)[nH]2)cc1 | inactive: -1.39 | inactive: -0.352 | inactive: -1.3
35 | CC(C)COc1ccc(Cc2cnc(N)nc2N)cc1 | inactive: -1.14 | inactive: 1.81 | inactive: -0.463
